PubChem BioAssay AID1259254 | NCATS – 2017

Test: 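Genome-wide screen for genes that prevent DNA re-replication in cancer cells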 (primary screen)
System: human HCT116 colorectal cancer cells
Knock-down reagent: single siRNA against human genes
Timing: 3 days
Detection: 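Nuclei stained with Hoechst and imaged; cell-cycle phase assigned by DNA content; G2 share scaled per plate, non-targeting siRNA 0%, GMNN siRNA 100%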
Scale: G2 robust z-score: higher = more G2 cells, more excess DNA replication
Active means: 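Active siRNAs have a G2 robust z of 5 or more median absolute deviations over the median, which in these data means about 38% or higher of GMNN control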
The whole screen tested about 59,000 reagents; this is a random part of them. About 1,550 of them (2.6%) count as active. 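G2 share is only a proxy for re-replication; each gene was hit by three separate siRNAs, and active genes were retested.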 The numbers tell different reagents against one gene apart. Further read-outs or replicates are left out here. Not given: the amount of reagent.

What did the screen give for ANKMY2 #1?
G2 robust z-score: -0.261; call: inactive

Which result is listed for ANKMY2 #2?
G2 robust z-score: 2.64; call: inactive

What did the screen give for ANKMY2 #3?
G2 robust z-score: 0.34; call: inactive

How did the screen score PHOSPHO2 #1?
G2 robust z-score: -0.512; call: inactive

With PHOSPHO2 #2, how do the results read?
G2 robust z-score: 0.0828; call: inactive

How did the screen score PHOSPHO2 #3?
G2 robust z-score: 0.223; call: inactive

What is on record for C6orf118 #1?
G2 robust z-score: 1.67; call: inactive

What is on record for C6orf118 #2?
G2 robust z-score: 0.472; call: inactive

With C6orf118 #3, what was measured?
G2 robust z-score: -0.39; call: inactive

Already shown: entries from further up.
C6orf118 #2 — G2 robust z-score = 0.472; call = inactive
C6orf118 #3 — G2 robust z-score = -0.39; call = inactive

The listing continues:
For CCND3 #1, how do the results read?
G2 robust z-score: -0.937; call: inactive

What is on record for CCND3 #2?
G2 robust z-score: 0.0943; call: inactive

How did the screen score CCND3 #3?
G2 robust z-score: 1.65; call: inactive

Which result is listed for ARB2BP #1?
G2 robust z-score: -0.747; call: inactive

How did the screen score ARB2BP #2?
G2 robust z-score: 0.12; call: inactive

What did the screen give for ARB2BP #3?
G2 robust z-score: -0.284; call: inactive

Which result is listed for ELMOD1 #1?
G2 robust z-score: -0.39; call: inactive

How did the screen score ELMOD1 #2?
G2 robust z-score: 2.32; call: inactive

With ELMOD1 #3, what was measured?
G2 robust z-score: 3.22; call: inactive

For ELMOD1 #4, what was measured?
G2 robust z-score: 0.685; call: inactive

What is on record for ELMOD1 #5?
G2 robust z-score: -0.914; call: inactive

For ELMOD1 #6, what does the deposit list?
G2 robust z-score: -0.304; call: inactive
